{"source": "paper PMC5996148", "assay_in_all_cases": "protein microarray (ProtoArray v5.0), streptavidin-Alexa Fluor 647", "details_in_all_cases": "3'-biotin; 20 mM Tris (pH 7.5), 5 mM MgCl2, 100 mM KCl, 0.1% Tween-20, A/T-rich and random oligonucleotide blockers; temperature not stated; high values mean tight binding", "key": {"[1]": {"test_system": "Interleukin-1 family member 6 (human)"}, "[2]": {"test_system": "Interleukin-1 receptor antagonist protein (human)"}, "Interleukin-13 (human)": {"test_system": "Interleukin-13 (human)"}, "[3]": {"test_system": "Interleukin-17 receptor D (human)"}, "[4]": {"test_system": "Interleukin-18-binding protein (human)"}, "Interleukin-19 (human)": {"test_system": "Interleukin-19 (human)"}, "Interleukin-2 (human)": {"test_system": "Interleukin-2 (human)"}, "Interleukin-22 (human)": {"test_system": "Interleukin-22 (human)"}, "Interleukin-24 (human)": {"test_system": "Interleukin-24 (human)"}, "[5]": {"test_system": "Isocitrate dehydrogenase [NADP] cytoplasmic (human)"}}, "note": "Values joined by “and” are separate entries in the source; they are usually repeats but may differ in a detail not shown here. Equal values may be shown once. This is one part of the list.", "data": [{"sequence": "GGGAGGCTGAGGCAGG [G4-1 biotinylated (PQS2)]", "values": [{"measurement": "binding signal", "setting": "[1]", "value": -0.277, "unit": "z-score"}, {"measurement": "binding signal", "setting": "[2]", "value": -0.35, "unit": "z-score"}, {"measurement": "binding signal", "setting": "Interleukin-13 (human)", "value": -0.232, "unit": "z-score"}, {"measurement": "binding signal", "setting": "[3]", "value": -0.236, "unit": "z-score"}, {"measurement": "binding signal", "setting": "[4]", "value": -0.319, "unit": "z-score"}, {"measurement": "binding signal", "setting": "Interleukin-19 (human)", "value": -0.34, "unit": "z-score"}, {"measurement": "binding signal", "setting": "Interleukin-2 (human)", "value": "-0.323 z-score and -0.296 z-score"}, {"measurement": "binding signal", "setting": "Interleukin-22 (human)", "value": -0.333, "unit": "z-score"}, {"measurement": "binding signal", "setting": "Interleukin-24 (human)", "value": "-0.308 z-score and -0.317 z-score"}, {"measurement": "binding signal", "setting": "[5]", "value": "-0.332 z-score and -0.318 z-score"}]}]}
